Among the data in patent US7250488 are binding values, retold here.

By UniProt entry, the sequences of proteins in these tests, tags left out. Where a name states a change or a piece, a line headed by the entry shows the natural chain unless it says otherwise. Residues count along the entry.
UniProt P04386: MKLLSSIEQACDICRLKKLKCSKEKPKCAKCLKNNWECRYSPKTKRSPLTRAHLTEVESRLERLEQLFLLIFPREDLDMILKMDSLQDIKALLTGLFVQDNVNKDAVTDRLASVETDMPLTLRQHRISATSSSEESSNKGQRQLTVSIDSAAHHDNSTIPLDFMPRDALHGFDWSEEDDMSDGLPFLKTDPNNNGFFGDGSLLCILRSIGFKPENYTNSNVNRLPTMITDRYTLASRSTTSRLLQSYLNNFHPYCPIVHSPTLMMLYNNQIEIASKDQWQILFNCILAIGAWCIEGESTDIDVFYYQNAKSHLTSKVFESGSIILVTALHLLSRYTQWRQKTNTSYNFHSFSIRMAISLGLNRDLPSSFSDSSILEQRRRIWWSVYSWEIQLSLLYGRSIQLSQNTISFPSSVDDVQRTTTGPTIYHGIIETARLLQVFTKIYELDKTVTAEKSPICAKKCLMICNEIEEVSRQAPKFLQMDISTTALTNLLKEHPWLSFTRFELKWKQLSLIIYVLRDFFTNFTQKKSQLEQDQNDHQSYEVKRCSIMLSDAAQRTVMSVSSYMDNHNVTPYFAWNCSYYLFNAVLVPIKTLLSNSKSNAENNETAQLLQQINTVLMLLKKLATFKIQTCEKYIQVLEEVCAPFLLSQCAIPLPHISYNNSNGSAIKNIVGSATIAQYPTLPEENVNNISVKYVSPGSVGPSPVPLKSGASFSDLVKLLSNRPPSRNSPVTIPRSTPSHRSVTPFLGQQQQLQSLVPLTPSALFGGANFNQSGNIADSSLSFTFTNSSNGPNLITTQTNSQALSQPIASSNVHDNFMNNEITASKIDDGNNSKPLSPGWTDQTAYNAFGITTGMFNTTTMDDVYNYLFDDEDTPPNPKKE
UniProt Q02248: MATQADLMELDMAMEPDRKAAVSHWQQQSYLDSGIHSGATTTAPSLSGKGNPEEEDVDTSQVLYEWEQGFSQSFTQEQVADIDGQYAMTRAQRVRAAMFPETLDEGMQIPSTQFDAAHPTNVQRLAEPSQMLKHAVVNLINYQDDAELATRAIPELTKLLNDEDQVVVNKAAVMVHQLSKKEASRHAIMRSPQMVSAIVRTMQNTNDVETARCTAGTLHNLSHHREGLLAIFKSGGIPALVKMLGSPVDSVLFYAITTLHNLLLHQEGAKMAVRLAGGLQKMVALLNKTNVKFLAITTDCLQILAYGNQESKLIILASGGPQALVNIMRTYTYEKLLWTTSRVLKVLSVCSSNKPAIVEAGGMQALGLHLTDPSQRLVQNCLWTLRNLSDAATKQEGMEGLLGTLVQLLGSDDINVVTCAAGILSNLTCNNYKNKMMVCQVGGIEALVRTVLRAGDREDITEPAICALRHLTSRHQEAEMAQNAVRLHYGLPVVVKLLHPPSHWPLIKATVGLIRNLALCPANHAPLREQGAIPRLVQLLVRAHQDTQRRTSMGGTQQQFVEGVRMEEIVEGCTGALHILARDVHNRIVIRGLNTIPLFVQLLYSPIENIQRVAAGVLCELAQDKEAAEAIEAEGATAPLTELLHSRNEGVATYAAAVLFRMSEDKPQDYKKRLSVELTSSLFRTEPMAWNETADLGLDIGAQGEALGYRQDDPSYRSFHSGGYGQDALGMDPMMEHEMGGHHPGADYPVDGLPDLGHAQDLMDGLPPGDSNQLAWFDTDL
mouse β-catenin: residues 2-781 of Q02248
armadillo domain of mouse β-catenin (residues 141 to 664), ^35S-labeled: residues 141-664 of Q02248

No constants are given. Whether binding was seen depends on the method and setting. For some assays here: Binding seen in cells or lysates may run through a third protein. Some entries that bind do so weakly or less than the wild type. Sequences can lack the tags named with a protein.

Assay [1] deals with T1, GAL4-β-catenin fusion protein (GAL4 BD fused with mβ-catenin arm, residues 141 to 664) (yeast; mouse) (UniProt P04386+Q02248). The experiment in a line: yeast two-hybrid, β-galactosidase activity.
For assay [2], the target named is T1, GAL4-β-catenin fusion protein (GAL4 BD fused with mβ-catenin arm, residues 141 to 664) (yeast; mouse). The experiment in a line: yeast two-hybrid screen of a mouse fetal cDNA library, HIS3 and lacZ reporters.
Assay [3] concerns the target armadillo domain of mouse β-catenin (residues 141 to 664), ^35S-labeled (mouse) (UniProt Q02248). The experiment in a line: restates the GST/ICAT pull-down of Example 8.
Assay [4] shares this target. The experiment in a line: GST/ICAT pull-down of ^35S-labeled in vitro translated fragment, autoradiography.
The next assay has as its target mouse β-catenin (mouse) (UniProt Q02248). The experiment in a line: pull-down on glutathione-Sepharose 4B of ^35S-labeled β-catenin, SDS-PAGE, autoradiography.
The target in assay [5] is T1, GAL4-β-catenin fusion protein (GAL4 BD fused with mβ-catenin arm, residues 141 to 664) (yeast; mouse). The experiment in a line: restates the yeast two-hybrid result of Example 11(1).

B1: ICAT (1-61), GAL4 AD fusion (protein, not shown: large carriers)
chain: MNREGAPGKSPEEMYIQQKVRVLLMLRKMGSNLTASEEEFLRTYAGVVSSQLSQLPQHSID
For B1, in assay [1], the binding result is “binds”.

B2: GAL4 AD fusion of mouse normal ICAT (two-hybrid prey) (protein, not shown: large carriers)
chain: MNREGAPGKSPEEMYIQQKVRVLLMLRKMGSNLTASEEEFLRTYAGVVSSQLSQLPQHSIDQGAEDVVMAFSRSETEDRRQ
Take B2: in assay [2], the binding entry is on record as “binds”.

B3: GST/ICAT (fusion protein between GST and ICAT) (protein, not shown: a dimerising Fc or GST)
chain: B2 chain
As for B3, the binding result (in assay [3]; in assay [4]; with mouse β-catenin (mouse)) was “binds” in each case.

Consider EMYIQQKVRVLLMLRKMGSNLTASEEEFLRTYAGVVSSQLSQLPQHSID (peptide, not shown: large carriers) [ICAT(13-61), GAL4 AD fusion], for which the binding entry in assay [1] is “binds”.

B4: ICAT (13-81), GAL4 AD fusion (protein, not shown: large carriers)
chain: EMYIQQKVRVLLMLRKMGSNLTASEEEFLRTYAGVVSSQLSQLPQHSIDQGAEDVVMAFSRSETEDRRQ
Take B4: the binding result in assay [1] and in assay [5] was “binds” in each case.
